Assay results taken from patent US20250339443A1, “METHOD FOR TREATING OR PREVENTING CALCIUM RELEASE-ACTIVATED CALCIUM CHANNEL OR DISCOIDIN DOMAIN RECEPTOR 2 RELATED DISORDERS OR CONDITIONS” (LumiSTAR Biotechnology, Inc., priority 2023, published 2025).
At least one compound was matched to its structure with a doubt left.

What was measured:
NRK49F cells = assay: Collagen alignment assay in FITC-conjugated collagen gel; assay type: cell-based, rat; details: 10 ng/ml TGF-β1, 10 μM, 5 days
Experimental: FIG. 2A, FIG. 2B, FIG. 2C, FIG. 2D, FIG. 2E, FIG. 2F, FIG. 2G-1, and FIG. 2G-2 display how WRG-28 and Av suppress TGF-β1-induced fibroblasts activation and the differentiation of pericytes into myofibroblasts. […] Each bar represents the mean #SEM. […] The protein levels of collagen 1a1 and α-SMA were assessed using Western blot analysis under various conditions. […] Each bar represents mean±SEM. […] The images were acquired using a confocal microscope (Olympus, MPE). FIG. 2G-1 and FIG. 2G-2 display the measurement of angles between collagen fibers and the cell membrane, conducted using Image J. At least five different images from each condition were analyzed. Each bar represents mean±SEM. In all graphs, *, **, and *** represent p-value <0.05, 0.01, and 0.001, respectively. ‘ns’ denotes p-value >0.05, indicating no significant difference.
FITC-conjugated collagen was used to make collagen gel and cells were grown in the gel for 5 days. After that cells were fixed with 4% paraformaldehyde and phalloidin-TRICT was used as counterstaining in the evaluation of the cell body. The angles between fibers and cell membrane were measured by image J.
The alignment of the extracellular matrix (ECM) is a unique characteristic of myofibroblasts, altering the physical properties of the tissue microenvironment and posing a threat to tissue homeostasis during organ fibrosis. […]

[1] = test system: obstruction-induced persistent progression of renal fibrosis; assay: Reversible unilateral ureteral obstruction (RUUO) model; assay type: in vivo, mouse
Source text: FIG. 6A illustrates a diagram depicting the timeline of operations and drug delivery. The left ureter was surgically ligated (UUO-L) for 7 days, after which it was re-connected to the bladder (RUUO-L). Various compounds, including DMSO (control), WRG-28, and Av, were intraperitoneally injected daily during ureter ligation (UUO-L) period. After following RUUO-L for an additional 13 days, the right ureter was ligated (UUO-R). Subsequently, mice were housed in metabolic cages on the day after surgery (day 21). On day 22, the left kidneys were removed for further analysis to evaluate kidney function. […] FIG. 6C illustrates the measurement of the Sirius red-positive area in each group, conducted by using Image J from 5-10 images. The protein levels of integrin β1, collagen 1a1, DDR2, α-SMA, E-cadherin, SGLT2, NHE1, and β-actin were assessed in mice treated with WRG-28 (FIG. 6D) and Av (FIG. 6F) using Western blot analysis. Relative protein levels were quantified using Image J (FIG. 6E and FIG. 6G). Each bar represents mean±SEM. In all the graphs, *, **, and *** denote p-values of <0.05, 0.01, and 0.001, respectively.
The left ureter was surgically ligated (UUO-L) for 7 days, after which it was re-connected to the bladder (RUUO-L). Various compounds, including DMSO (control), WRG-28, and Av were intraperitoneally injected for 13 days after the release of left ureter ligation (during RUUO-L period). After 13 days of RUUO-L, the right ureter was ligated (UUO-R). Subsequently, the mice were housed in metabolic cages on the following day of surgery (day 21). On day 22, the left kidneys were removed for further analysis. […] FIG. 7C illustrates the measurement of the Sirius red-positive area in each group using Image J from 5-10 images. The protein levels of integrin β1, collagen 1a1, DDR2, […] were assessed in mice treated with WRG-28 (FIG. 7D) and Av (FIG. 7F) using Western blot analysis. The relative protein levels were measured and quantified using Image J (FIG. 7E and FIG. 7G). Each bar represents the mean±SEM. In all the graphs, *, **, and *** denote p-values of <0.05, 0.01, and 0.001, respectively. NS denotes a p-value >0.05, indicating no significant difference between the two groups.
FIG. 8A, FIG. 8B, FIG. 8C, FIG. 8D, FIG. 8E, FIG. 8F, FIG. 8G, and FIG. 8H illustrate how WRG-28 and Av restore epithelial differentiation and reduce collagen deposition and myofibroblast expansion in RUUO-induced persistent progression of renal fibrosis. The frozen tissue blocks were utilized for immunofluorescence staining. […] Laminin alpha 1 and collagen 1a1 were detected using primary antibodies, followed by secondary antibodies conjugated with Alexa-488 (green) and Alexa-594 (red), respectively. Hoechst 33258 (blue) was used for labeling nuclei. FIG. 8A-(ii) illustrates the fluorescent intensity of collagen 1a1 measured using Image J. Analysis was conducted on 5-10 areas from each of the 5 pictures, with each bar representing the mean±SEM. In FIG. 8A-(i), the thickness of laminin alpha 1 was measured using Image J by analyzing 5-10 areas from each of the 5-10 pictures. The median is marked by a solid line, while the quartiles are indicated by dotted lines. […] FIG. 8B-(iii) illustrates the fluorescent intensity of α-SMA, measured using Image J. Quantification was conducted on at least 5 areas from each of the 5 pictures, with each bar representing the mean±SEM. […] Additionally, Hoechst 33258 (blue) was used for labeling nuclei. FIG. 8C-(iv) illustrates the quantification of apical membrane expression of SGLT2 in SGLT2 positive cells for each condition. Analysis was conducted on at least 5 pictures from each condition, with each bar representing the mean±SEM. […] Hoechst 33258 (blue) was used to label nuclei. The expressions of DDR2 (FIG. 8D-(v)) and AQP1 (FIG. 8D-(vi)) were analyzed and quantified based on 5-8 pictures from each condition. Each bar in the figures represents the mean±SEM. […]

[2] = serum, compared to DMSO-treated mice, 7*/15d or 7/15*d
[3] = treated after release of obstruction (7/15*d), Western blot
[4] = treated after the obstruction was released (7/15*d)
[5] = treated during obstruction (7*/15d)
[6] = treated during obstruction (7*/15d), Western blot

SMILES: O=C1C(O)=C([C@H]2CC[C@H](c3ccc(Cl)cc3)CC2)C(=O)c2ccccc21 [Av, atovaquone]
- TGF-β1-induced collagen alignment (NRK49F cells): reduced
- expression of DDR2 (immunofluorescence) ([1]; RUUO, compared to the DMSO-treated group): reduced
- apical membrane expression of SGLT-2 ([1]; RUUO, immunofluorescence): reversed
- atrophic tubules ([1]; RUUO, immunofluorescence): fewer
- accumulation of collagen 1a1 (immunofluorescence) ([1]; RUUO, vs DMSO treated group): mitigated
- expression of α-SMA (immunofluorescence) ([1]; RUUO, vs DMSO treated group): markedly reduced
- level of BUN [1, 2]: significantly reduced
- level of CRE [1, 2]: significantly reduced
- kidney histology (H&E) ([1]; treated 7 days during ureter obstruction (7*/15d)): preserved the intact tubular structure
- kidney histology (H&E) compared to DMSO-treated mice ([1]; treated 13 days after release of obstruction (7/15*d)): numerous intact tubular structures, less inflammation and scar tissue
- collagen-positive area (Sirius red) ([1]; treated after release of obstruction (7/15*d)): reduced
- downregulation of epithelial marker proteins, E-cadherin, SGLT2 and NHE1 [1, 3]: only partially reversed
- obstruction-induced upregulation of integrin β1, DDR2, collagen 1a1, and α-SMA [1, 3]: alleviated
- number of apoptotic cells (TUNEL-positive cells) [1, 4]: significantly reduced
- numbers of proliferating tubular cells (Ki67-positive cells) [1, 4]: increased
- expansion of the fibrotic area (collagen-positive area, Sirius red) [1, 5]: significantly reduced
- numbers of proliferating tubular cells (Ki67-positive) [1, 5]: did not significantly differ
- expression of epithelial markers (E-cadherin, SGLT2, NHE1) [1, 6]: significant increase
- expression of mesenchymal marker proteins (integrin β1, DDR2, collagen 1a1, α-SMA) [1, 6]: significantly reduced
- apoptotic (TUNEL-positive) tubular cells ([1]; treated during obstruction, obstruction released for 15 days (7*/15d)): only a few
- width of the basement membrane (laminin alpha 1 thickness) ([1]; treated during the obstruction (7*/15d) or after its release (7/15*d), immunofluorescence): uniform and unchanging width
